Results are given in words; binding and its absence hold for the method and conditions named. In cells and extracts the contact can be indirect. Some binding calls cover weakened binding; strength is not graded here.
Molecular target: RETREG1 GFP1-10 (UniProt Q9H6L5)
Assay: split reporter

Amino acid sequences for entries named in this document (tags omitted). Residues count along the entry.
UniProt Q9H6L5: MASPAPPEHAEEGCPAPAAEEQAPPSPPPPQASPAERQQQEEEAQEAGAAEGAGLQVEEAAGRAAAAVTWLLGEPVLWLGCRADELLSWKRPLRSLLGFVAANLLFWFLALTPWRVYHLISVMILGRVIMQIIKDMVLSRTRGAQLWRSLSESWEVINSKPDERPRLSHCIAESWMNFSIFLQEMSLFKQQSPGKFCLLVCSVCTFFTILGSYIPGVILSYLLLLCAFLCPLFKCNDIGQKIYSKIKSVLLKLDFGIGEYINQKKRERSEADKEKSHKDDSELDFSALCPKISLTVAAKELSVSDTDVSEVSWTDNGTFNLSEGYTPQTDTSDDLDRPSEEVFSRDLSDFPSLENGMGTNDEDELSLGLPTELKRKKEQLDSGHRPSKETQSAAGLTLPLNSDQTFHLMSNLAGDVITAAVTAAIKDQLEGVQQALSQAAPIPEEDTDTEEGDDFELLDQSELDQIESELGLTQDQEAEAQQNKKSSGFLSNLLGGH
UniProt P59826, residues 17-472: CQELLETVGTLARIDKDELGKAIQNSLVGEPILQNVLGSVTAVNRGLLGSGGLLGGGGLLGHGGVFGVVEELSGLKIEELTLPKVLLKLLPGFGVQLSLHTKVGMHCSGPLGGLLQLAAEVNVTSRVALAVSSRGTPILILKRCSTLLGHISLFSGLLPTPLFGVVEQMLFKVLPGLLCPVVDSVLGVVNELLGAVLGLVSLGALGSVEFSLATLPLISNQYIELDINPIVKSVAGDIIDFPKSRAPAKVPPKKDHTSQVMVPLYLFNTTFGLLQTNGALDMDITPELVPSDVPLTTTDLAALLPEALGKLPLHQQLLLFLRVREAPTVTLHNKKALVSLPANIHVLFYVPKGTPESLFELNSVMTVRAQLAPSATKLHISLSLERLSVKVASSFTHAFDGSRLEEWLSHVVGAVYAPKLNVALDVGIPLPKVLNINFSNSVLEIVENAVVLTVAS

## BPIFB3 GFP11 (from UniProt P59826 17-472)
  binding: binds

From doi:10.1101/333435
